Measurements as given in the supplement of paper PMC10849652.
The other results are listed elsewhere or left out.

The chains behind the UniProt entries cited, without tags or fusion partners. Where a name states a change or a piece, a line headed by the entry shows the natural chain unless it says otherwise.
UniProt O75081: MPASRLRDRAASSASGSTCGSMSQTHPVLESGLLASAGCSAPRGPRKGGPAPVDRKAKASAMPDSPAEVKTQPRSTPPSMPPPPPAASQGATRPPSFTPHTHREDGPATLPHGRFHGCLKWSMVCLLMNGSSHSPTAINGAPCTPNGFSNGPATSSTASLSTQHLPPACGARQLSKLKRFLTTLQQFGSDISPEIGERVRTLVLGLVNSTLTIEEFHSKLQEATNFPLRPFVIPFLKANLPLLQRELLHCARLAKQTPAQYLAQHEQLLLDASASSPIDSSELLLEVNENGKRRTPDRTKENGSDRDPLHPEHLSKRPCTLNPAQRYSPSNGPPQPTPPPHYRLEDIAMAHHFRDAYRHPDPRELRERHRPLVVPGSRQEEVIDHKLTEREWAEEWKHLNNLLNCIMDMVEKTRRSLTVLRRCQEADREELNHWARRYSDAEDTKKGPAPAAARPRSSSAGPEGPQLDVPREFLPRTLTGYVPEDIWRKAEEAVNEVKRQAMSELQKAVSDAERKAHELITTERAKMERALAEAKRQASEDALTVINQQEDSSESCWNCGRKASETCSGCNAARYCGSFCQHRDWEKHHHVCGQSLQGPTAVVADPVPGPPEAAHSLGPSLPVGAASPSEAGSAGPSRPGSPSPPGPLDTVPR
UniProt A2RUR9: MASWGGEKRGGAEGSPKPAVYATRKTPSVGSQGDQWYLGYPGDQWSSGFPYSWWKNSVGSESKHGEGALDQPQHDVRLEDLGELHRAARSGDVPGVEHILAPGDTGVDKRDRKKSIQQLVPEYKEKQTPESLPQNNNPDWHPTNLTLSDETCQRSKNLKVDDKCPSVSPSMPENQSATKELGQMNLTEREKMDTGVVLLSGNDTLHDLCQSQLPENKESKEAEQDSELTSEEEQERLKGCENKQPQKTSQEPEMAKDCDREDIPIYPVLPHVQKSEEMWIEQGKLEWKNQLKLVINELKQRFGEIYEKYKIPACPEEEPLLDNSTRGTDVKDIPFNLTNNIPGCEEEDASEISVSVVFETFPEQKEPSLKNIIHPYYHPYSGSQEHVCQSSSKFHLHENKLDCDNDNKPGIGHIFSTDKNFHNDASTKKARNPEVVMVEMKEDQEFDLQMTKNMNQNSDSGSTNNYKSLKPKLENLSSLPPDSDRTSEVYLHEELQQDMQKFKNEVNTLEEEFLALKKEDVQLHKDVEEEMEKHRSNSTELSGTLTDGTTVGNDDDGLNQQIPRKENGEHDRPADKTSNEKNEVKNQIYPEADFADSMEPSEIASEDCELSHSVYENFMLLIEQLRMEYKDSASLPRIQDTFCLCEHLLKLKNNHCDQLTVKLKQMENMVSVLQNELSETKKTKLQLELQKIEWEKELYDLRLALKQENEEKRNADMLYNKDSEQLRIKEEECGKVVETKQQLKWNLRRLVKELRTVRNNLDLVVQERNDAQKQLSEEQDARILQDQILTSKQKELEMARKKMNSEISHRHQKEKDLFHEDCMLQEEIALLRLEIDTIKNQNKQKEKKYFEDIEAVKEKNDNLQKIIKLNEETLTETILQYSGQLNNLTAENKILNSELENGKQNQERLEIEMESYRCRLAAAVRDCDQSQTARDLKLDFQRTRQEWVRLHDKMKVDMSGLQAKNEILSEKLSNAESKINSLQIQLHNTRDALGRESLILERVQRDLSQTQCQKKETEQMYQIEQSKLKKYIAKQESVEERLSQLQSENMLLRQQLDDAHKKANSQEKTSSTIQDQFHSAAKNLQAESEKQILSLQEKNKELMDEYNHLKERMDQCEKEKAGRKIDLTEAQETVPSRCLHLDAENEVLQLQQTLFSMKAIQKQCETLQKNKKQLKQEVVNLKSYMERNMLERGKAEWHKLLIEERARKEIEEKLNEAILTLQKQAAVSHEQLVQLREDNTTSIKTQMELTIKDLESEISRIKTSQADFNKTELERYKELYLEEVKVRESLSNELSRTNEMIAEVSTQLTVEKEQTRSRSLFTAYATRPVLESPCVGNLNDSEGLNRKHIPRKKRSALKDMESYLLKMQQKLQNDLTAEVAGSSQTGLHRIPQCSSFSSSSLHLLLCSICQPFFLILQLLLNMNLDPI
UniProt P55211: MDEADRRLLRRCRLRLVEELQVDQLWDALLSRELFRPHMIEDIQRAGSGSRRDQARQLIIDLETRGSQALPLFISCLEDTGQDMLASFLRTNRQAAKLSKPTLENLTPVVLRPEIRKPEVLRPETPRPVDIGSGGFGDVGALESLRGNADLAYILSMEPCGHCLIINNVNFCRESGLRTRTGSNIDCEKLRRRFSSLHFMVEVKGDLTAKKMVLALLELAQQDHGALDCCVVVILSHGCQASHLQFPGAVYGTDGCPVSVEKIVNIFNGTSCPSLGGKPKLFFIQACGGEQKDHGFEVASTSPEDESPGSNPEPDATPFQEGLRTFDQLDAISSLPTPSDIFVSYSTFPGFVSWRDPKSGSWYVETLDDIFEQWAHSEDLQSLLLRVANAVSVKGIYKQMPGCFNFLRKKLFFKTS
UniProt O95810: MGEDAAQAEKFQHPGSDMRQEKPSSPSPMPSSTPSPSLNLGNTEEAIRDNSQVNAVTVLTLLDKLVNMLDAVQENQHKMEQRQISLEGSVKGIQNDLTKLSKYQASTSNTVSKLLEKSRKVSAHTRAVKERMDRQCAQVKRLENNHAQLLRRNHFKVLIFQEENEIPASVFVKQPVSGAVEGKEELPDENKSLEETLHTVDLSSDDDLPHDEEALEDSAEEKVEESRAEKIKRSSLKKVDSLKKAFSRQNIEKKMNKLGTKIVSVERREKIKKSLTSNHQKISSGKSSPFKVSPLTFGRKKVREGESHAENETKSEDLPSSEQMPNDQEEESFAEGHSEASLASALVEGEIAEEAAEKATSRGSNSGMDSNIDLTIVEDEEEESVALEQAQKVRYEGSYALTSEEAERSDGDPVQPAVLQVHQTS
UniProt P16152: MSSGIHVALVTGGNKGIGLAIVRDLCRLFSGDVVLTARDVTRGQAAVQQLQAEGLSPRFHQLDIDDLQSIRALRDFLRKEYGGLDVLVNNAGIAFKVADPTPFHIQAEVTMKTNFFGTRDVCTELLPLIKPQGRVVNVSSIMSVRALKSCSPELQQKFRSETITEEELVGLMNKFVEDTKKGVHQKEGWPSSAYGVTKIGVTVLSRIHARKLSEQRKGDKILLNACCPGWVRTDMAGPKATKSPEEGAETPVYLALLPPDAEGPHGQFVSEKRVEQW
UniProt Q7Z6B0: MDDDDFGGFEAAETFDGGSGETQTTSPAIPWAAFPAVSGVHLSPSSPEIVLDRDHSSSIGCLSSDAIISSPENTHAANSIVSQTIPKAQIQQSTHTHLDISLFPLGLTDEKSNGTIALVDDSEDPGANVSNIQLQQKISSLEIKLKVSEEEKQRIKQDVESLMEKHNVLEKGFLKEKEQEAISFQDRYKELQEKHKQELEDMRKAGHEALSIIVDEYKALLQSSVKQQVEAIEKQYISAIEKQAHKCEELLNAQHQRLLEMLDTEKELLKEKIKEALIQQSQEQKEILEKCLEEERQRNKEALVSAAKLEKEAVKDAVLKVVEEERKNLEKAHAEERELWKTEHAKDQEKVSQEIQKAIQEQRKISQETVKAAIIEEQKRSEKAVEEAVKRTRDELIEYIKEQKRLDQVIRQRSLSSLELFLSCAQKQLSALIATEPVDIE
UniProt Q9Y2V2: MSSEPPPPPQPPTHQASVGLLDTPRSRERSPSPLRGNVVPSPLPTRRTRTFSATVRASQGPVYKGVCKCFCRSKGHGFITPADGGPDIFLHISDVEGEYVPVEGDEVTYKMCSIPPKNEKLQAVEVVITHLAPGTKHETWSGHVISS
UniProt O75909: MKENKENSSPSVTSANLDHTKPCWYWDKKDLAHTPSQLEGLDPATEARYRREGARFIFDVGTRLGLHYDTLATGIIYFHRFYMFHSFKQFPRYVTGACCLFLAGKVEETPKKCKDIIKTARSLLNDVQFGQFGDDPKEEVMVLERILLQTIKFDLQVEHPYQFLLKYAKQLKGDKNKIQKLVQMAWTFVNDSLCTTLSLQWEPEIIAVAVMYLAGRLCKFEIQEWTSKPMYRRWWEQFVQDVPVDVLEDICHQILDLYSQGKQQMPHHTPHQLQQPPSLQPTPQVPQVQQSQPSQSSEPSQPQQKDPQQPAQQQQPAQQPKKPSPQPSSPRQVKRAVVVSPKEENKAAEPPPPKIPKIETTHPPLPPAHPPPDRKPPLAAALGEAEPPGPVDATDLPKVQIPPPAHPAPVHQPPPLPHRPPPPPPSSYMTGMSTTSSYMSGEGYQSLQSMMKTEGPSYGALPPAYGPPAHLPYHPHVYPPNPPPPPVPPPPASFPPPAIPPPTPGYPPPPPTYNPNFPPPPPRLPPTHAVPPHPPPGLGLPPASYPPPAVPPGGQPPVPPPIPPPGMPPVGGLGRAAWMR
UniProt Q96F63: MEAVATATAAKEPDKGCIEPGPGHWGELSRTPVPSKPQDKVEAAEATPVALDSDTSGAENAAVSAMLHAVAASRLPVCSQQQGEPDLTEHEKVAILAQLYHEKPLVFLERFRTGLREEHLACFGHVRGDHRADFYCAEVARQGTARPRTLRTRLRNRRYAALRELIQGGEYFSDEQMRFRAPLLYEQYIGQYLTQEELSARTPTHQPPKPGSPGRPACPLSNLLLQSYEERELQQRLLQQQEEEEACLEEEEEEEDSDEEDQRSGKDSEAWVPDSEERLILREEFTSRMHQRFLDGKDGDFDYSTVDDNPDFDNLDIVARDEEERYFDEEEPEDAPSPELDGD
UniProt Q96ER9: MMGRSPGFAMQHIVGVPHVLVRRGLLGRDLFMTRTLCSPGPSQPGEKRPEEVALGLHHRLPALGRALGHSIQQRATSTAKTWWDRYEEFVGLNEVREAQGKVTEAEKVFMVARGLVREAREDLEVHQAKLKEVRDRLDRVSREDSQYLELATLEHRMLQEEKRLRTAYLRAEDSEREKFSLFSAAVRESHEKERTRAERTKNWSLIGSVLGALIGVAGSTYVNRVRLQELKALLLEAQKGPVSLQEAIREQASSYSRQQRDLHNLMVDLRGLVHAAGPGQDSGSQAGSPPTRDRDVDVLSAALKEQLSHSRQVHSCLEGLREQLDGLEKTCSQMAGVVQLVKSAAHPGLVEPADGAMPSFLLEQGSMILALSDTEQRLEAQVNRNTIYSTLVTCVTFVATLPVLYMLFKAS
UniProt P55212: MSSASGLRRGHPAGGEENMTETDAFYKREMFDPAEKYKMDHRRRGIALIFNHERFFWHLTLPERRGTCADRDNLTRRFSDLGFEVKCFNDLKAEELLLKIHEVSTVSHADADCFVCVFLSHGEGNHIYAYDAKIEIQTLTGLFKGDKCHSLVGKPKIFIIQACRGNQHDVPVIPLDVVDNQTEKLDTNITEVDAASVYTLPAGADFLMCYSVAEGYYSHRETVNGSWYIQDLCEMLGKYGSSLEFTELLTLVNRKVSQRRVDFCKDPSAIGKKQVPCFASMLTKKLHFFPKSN
UniProt P35520: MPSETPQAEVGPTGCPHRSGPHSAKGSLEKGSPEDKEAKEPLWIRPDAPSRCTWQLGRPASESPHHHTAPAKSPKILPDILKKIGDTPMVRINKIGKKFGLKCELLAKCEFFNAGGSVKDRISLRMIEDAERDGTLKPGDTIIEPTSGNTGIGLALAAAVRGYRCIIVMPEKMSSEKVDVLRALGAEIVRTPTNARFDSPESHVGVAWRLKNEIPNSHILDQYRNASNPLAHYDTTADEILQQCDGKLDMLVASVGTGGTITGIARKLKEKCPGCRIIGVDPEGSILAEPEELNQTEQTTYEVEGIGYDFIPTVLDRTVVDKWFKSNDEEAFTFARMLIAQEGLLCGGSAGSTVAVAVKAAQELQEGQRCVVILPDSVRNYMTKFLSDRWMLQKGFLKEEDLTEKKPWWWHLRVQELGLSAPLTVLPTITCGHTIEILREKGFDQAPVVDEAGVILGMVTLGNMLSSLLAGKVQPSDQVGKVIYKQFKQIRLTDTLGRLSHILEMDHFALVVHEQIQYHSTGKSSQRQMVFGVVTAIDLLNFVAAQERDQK
UniProt Q6PK04: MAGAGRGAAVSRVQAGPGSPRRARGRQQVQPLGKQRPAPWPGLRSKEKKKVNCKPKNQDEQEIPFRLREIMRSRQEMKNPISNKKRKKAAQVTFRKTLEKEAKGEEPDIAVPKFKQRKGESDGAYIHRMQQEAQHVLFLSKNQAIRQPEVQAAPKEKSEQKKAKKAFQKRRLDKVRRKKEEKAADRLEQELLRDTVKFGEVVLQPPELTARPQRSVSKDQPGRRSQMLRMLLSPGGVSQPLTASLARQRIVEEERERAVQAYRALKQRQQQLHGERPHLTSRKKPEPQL
UniProt Q9BUN5: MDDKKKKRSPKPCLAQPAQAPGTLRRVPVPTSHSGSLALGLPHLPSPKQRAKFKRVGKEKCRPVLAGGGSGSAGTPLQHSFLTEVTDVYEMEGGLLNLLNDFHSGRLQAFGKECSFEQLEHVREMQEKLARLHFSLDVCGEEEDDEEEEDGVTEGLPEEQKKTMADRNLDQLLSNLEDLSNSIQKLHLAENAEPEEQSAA

Experiments:
Assay in all cases: log2 fold change, soluble protein after heating vs DMSO (PISA); higher = thermal stabilisation; K562 lysate, 10 uM; active = over 0.2 and 3.5 SD of the protein, either way, in both replicates (recomputed)
[1] = compound: NCC(=O)Nc1ccc(-n2nc(C(F)(F)F)cc2-c2ccc3c(ccc4ccccc43)c2)cc1
Procedure, shortened: (§1)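 Pellets of K562 cells were dounce-homogenised in PBS pH 7.4 with 1 mM MgCl2, and the crude extract was held at 1 mg/mL protein for a 30 min treatment with 10 μM compound. Aliquots were heated for 3 min over 48°C-58°C and pooled before NP-40 was added to 0.5% at 4°C. The supernatant from 21,000xg for 90 min was quantified by TMTpro 16plex LC-MS/MS with channel sums equalised. Values are reported from duplicates as log-two fold change in thermal stability relative to solvent controls.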

vorinostat = compound: O=C(CCCCCCC(=O)Nc1ccccc1)NO [vorinostat]
Procedure, shortened: as §1

silmitasertib = compound: O=C(O)c1ccc2c(c1)nc(Nc1cccc(Cl)c1)c1ccncc12 [silmitasertib]
Procedure, shortened: as §1

[2] = compound: O=C1NC(=O)C(c2cnc3ccccn23)=C1c1cn2c3c(cc(F)cc13)CN(C(=O)N1CCCCC1)CC2
Procedure, shortened: as §1

entospletinib = compound: c1cn2cc(-c3ccc4cn[nH]c4c3)nc(Nc3ccc(N4CCOCC4)cc3)c2n1 [entospletinib]
Procedure, shortened: as §1

Measured: log2 fold change

CCNYL1 (UniProt Q8N7R7)
inactive: [1] -0.013 | silmitasertib 0.079 | [2] 0.019 | entospletinib -0.005
active: vorinostat -0.674

CCDC186 (UniProt Q7Z3E2)
inactive: [1] 0.052 | vorinostat 0.005 | silmitasertib 0.057 | [2] 0.012 | entospletinib -0.01

CCDC88A (UniProt Q3V6T2)
inactive: [1] -0.002 | vorinostat -0.089 | silmitasertib -0.007 | [2] -0.031 | entospletinib -0.01

CASK (UniProt O14936)
inactive: [1] -0.006 | vorinostat 0.064 | silmitasertib -0.062 | [2] -0.095 | entospletinib -0.186

CCDC50 isoform 2 (UniProt Q8IVM0)
inactive: [1] -0.062 | vorinostat -0.001 | silmitasertib 0.012 | [2] -0.003 | entospletinib 0.01

CBWD5 (UniProt Q5RIA9)
inactive: [1] 0.08 | vorinostat -0.053 | silmitasertib -0.017 | [2] 0 | entospletinib -0.011

CBFA2T3 (UniProt O75081)
inactive: [1] -0.004 | silmitasertib 0.009 | [2] -0.019 | entospletinib -0.012
active: vorinostat -0.4

CCDC85B (UniProt Q15834)
inactive: [1] -0.039 | vorinostat 0.088 | silmitasertib 0.042 | [2] -0.077 | entospletinib -0.397

CARS2 (UniProt Q9HA77)
inactive: [1] -0.026 | vorinostat 0.034 | silmitasertib 0.015 | [2] 0.057 | entospletinib -0.024

CCDC144A (UniProt A2RUR9)
inactive: [1] 0.186 | vorinostat 0.041 | silmitasertib -0.081 | [2] 0.037 | entospletinib -0.039

CD47 (UniProt Q08722)
inactive: [1] 0.007 | vorinostat 0.108 | silmitasertib -0.036 | [2] -0.037 | entospletinib -0.022

CCDC43 (UniProt Q96MW1)
inactive: [1] 0.022 | vorinostat 0.054 | silmitasertib -0.05 | [2] -0.016 | entospletinib -0.023

CBX5 (UniProt P45973)
inactive: [1] 0.033 | vorinostat -0.062 | silmitasertib -0.005 | [2] -0.048 | entospletinib 0.014

CCDC88C (UniProt Q9P219)
inactive: [1] -0.027 | vorinostat 0.025 | silmitasertib -0.135 | [2] -0.041 | entospletinib -0.157

CAVIN1 (UniProt Q6NZI2)
inactive: [1] -0.012 | vorinostat 0.141 | silmitasertib -0.013 | [2] 0.004 | entospletinib -0.028

CCT6A (UniProt P40227)
inactive: [1] 0.004 | vorinostat 0.049 | silmitasertib -0.005 | [2] 0.012 | entospletinib 0.024

CASP9 (UniProt P55211)
active: vorinostat -0.342
inactive: [1] 0.011 | silmitasertib -0.004 | [2] 0.019 | entospletinib -0.002

CCP110 (UniProt O43303)
inactive: [1] -0.033 | vorinostat -0.102 | silmitasertib -0.131 | [2] -0.124 | entospletinib 0.045

CD320 (UniProt Q9NPF0)
inactive: [1] -0.008 | vorinostat 0.062 | silmitasertib 0.053 | [2] -0.018 | entospletinib -0.087

CAVIN2 (UniProt O95810)
inactive: [1] 0.034 | vorinostat 0.131 | silmitasertib -0.027 | [2] 0.002 | entospletinib 0.005

CD80 (UniProt P33681)
inactive: [1] 0.018 | vorinostat -0.028 | silmitasertib -0.067 | [2] -0.066 | entospletinib -0.162

CBR1 (UniProt P16152)
inactive: [1] -0.01 | silmitasertib -0.024 | [2] 0.033 | entospletinib 0.006
active: vorinostat -0.377

CCDC25 (UniProt Q86WR0)
inactive: [1] 0.025 | vorinostat 0.025 | silmitasertib -0.032 | [2] -0.011 | entospletinib 0.009

CCDC91 (UniProt Q7Z6B0)
inactive: [1] -0.023 | vorinostat 0.041 | silmitasertib -0.014 | [2] -0.041 | entospletinib -0.028

CCAR2 (UniProt Q8N163)
inactive: [1] 0.01 | silmitasertib 0.002 | [2] -0.02 | entospletinib 0.02
active: vorinostat -0.399

CARHSP1 (UniProt Q9Y2V2)
inactive: [1] 0.045 | vorinostat 0.052 | silmitasertib -0.006 | [2] 0.056 | entospletinib -0.049

CARD9 (UniProt Q9H257)
active: vorinostat -0.217
inactive: [1] 0.008 | silmitasertib 0.011 | [2] 0.014 | entospletinib -0.038

CCZ1 (UniProt P86791)
inactive: [1] -0.003 | vorinostat -0.165 | silmitasertib 0.043 | [2] -0.013 | entospletinib -0.012

CCT4 (UniProt P50991)
inactive: [1] 0.013 | vorinostat 0.021 | silmitasertib 0.018 | [2] 0.008 | entospletinib 0.033

CASP10 isoform 4 (UniProt Q92851)
inactive: [1] -0.001 | vorinostat -0.157 | silmitasertib 0.011 | [2] 0.018 | entospletinib -0.016

CBX3 (UniProt Q13185)
inactive: [1] 0.069 | vorinostat -0.096 | silmitasertib 0.004 | [2] 0.057 | entospletinib 0.023

CAST isoform 6 (UniProt P20810)
inactive: [1] 0.016 | vorinostat 0.064 | silmitasertib -0.032 | [2] -0.003 | entospletinib -0.002

CCNK isoform 4 (UniProt O75909)
inactive: [1] 0.032 | vorinostat 0.093 | silmitasertib -0.007 | [2] -0.051 | entospletinib -0.002

CCDC93 (UniProt Q567U6)
inactive: [1] 0.024 | vorinostat -0.177 | silmitasertib -0.003 | [2] -0.015 | entospletinib 0.026

CBR4 (UniProt Q8N4T8)
inactive: [1] -0.02 | vorinostat 0.109 | silmitasertib -0.073 | [2] 0.018 | entospletinib 0.012

CCT5 (UniProt P48643)
inactive: [1] -0.012 | vorinostat 0.002 | silmitasertib 0.007 | [2] -0.019 | entospletinib 0.003

CASKIN2 (UniProt Q8WXE0)
inactive: [1] 0.002 | vorinostat 0.122 | silmitasertib -0.024 | [2] -0.045 | entospletinib 0.015

CCDC9 (UniProt Q9Y3X0)
inactive: [1] 0.003 | vorinostat 0.139 | silmitasertib -0.031 | [2] -0.007 | entospletinib -0.036

CD151 (UniProt P48509)
inactive: [1] -0.04 | vorinostat 0.022 | silmitasertib 0.015 | [2] -0.024 | entospletinib 0.027

CCDC97 (UniProt Q96F63)
inactive: [1] -0.04 | vorinostat -0.058 | silmitasertib -0.009 | [2] 0.022 | entospletinib -0.085

CCHCR1 isoform 2 (UniProt Q8TD31)
inactive: [1] -0.022 | vorinostat -0.004 | silmitasertib -0.064 | [2] 0.032 | entospletinib -0.079

CCDC51 (UniProt Q96ER9)
inactive: [1] 0.002 | vorinostat 0.153 | silmitasertib 0.011 | [2] 0.015 | entospletinib -0.046

CASP6 (UniProt P55212)
inactive: [1] -0.014 | vorinostat -0.049 | silmitasertib 0.045 | [2] -0.018 | entospletinib -0.01

CCNY (UniProt Q8ND76)
inactive: [1] 0.076 | silmitasertib -0.018 | [2] -0.002 | entospletinib -0.074
active: vorinostat -0.822

CBS (UniProt P35520)
inactive: [1] -0.049 | vorinostat 0.013 | silmitasertib 0.008 | [2] -0.042 | entospletinib 0.015

CCDC134 (UniProt Q9H6E4)
inactive: [1] -0.037 | vorinostat 0.063 | silmitasertib 0.001 | [2] -0.035 | entospletinib 0.019

CCDC22 (UniProt O60826)
inactive: [1] 0.056 | silmitasertib 0.022 | [2] 0.014 | entospletinib -0.021
active: vorinostat -0.222

CCDC28A (UniProt Q8IWP9)
inactive: [1] 0.036 | vorinostat 0.151 | silmitasertib -0.068 | [2] -0.009 | entospletinib -0.02

CBFB isoform 2 (UniProt Q13951)
inactive: [1] 0.024 | vorinostat 0.033 | silmitasertib -0.022 | [2] -0.049 | entospletinib 0.019

Fetched one by one from the entries so far, two records:
CBFB isoform 2 (UniProt Q13951)
inactive: [1] 0.024 | vorinostat 0.033 | silmitasertib -0.022 | [2] -0.049 | entospletinib 0.019

CCDC28A (UniProt Q8IWP9)
inactive: [1] 0.036 | vorinostat 0.151 | silmitasertib -0.068 | [2] -0.009 | entospletinib -0.02

Following part

CCDC137 (UniProt Q6PK04)
inactive: [1] 0.014 | vorinostat 0.177 | silmitasertib 0.019 | [2] 0.082 | entospletinib -0.025

CCDC28B (UniProt Q9BUN5)
inactive: [1] -0.12 | vorinostat -0.036 | silmitasertib -0.022 | [2] -0.041 | entospletinib -0.058

CD58 (UniProt P19256)
inactive: [1] -0.053 | vorinostat 0.023 | silmitasertib -0.029 | [2] -0.049 | entospletinib -0.005

CCT2 (UniProt P78371)
inactive: [1] -0.005 | vorinostat 0.057 | silmitasertib -0.005 | [2] 0.013 | entospletinib 0.016
